# According to patent US20240043431A1, “Sulfoximine Pesticides” (BASF SE, priority 2020, published 2024):
# Some of these results come from one statement about several compounds together. At least one compound was matched to its structure with a doubt left.
# How the values were obtained:
# Format in all cases: in vivo
# [1] = system: Aedes aegypti; details: 800 ppm; freshly hatched larvae in tap water; 2 days
# [2] = system: Trialeurodes vaporariorum; assay: Greenhouse whitefly (Trialeurodes vaporariorum) leaf disk test; details: 800 ppm; egg plant leaf disk with white fly eggs; 6 days
# [3] = system: Myzus persicae; assay: Green peach aphid (Myzus persicae) systemic artificial diet test; details: 800 ppm; pipetted into aphid diet; 3 days
# [4] = system: Nezara viridula; assay: Green soldier stink bug (Nezara viridula) soybean pod spray test; details: 300 ppm; late 3rd instar on soybean pods; 5 days
# [5] = system: Anthonomus grandis; assay: Boll weevil (Anthonomus grandis) microtiter diet test; details: 800 ppm; sprayed onto insect diet; 5 days
Structure (SMILES),mortality in comparison with untreated controls (larval mortality) [1],mortality in comparison with untreated controls (mortality of hatched crawlers) [2],further results
CCS(=O)(=O)c1cc(N=S(C)(C)=O)cnc1-c1cn2c(=O)n(C)c(C(F)(F)F)cc2n1 [I.2],over 75%,over 75%,–
CCS(=O)(=O)c1cc(N=S(C)(C)=O)cnc1-c1cn2c(=O)n(CC3CC3)c(C(F)(F)F)cc2n1 [I.3],over 75%,–,–
CCS(=O)(=O)c1cc(N=S(=O)(CC)CC)cnc1-c1cn2c(=O)n(C3CC3)c(C(F)(F)F)cc2n1 [I.5],–,over 75%,–
CCS(=O)(=O)c1cc(N=S2(=O)CCCC2)cnc1-c1cn2c(=O)n(C3CC3)c(C(F)(F)F)cc2n1 [I.6],–,over 75%,–
CCS(=O)(=O)c1cc(N=S(=O)(CC)CC)cnc1-c1cn2c(=O)n(C)c(C(F)(F)F)cc2n1 [I.7],–,over 75%,–
CCS(=O)(=O)c1cc(N=S(C)(C)=O)c(C)nc1-c1cn2c(=O)n(C3CC3)c(C(F)(F)F)cc2n1 [I.8],over 75%,over 75%,–
CCS(=O)(=O)c1cc(N=S(=O)(CC)c2ccc(C#N)nc2)cnc1-c1cn2c(=O)n(C3CC3)c(C(F)(F)F)cc2n1 (stereo not shown) [I.9],over 75%,–,–
CCS(=O)(=O)c1cc(N=S(C)(=O)c2ccc(C)cc2)cnc1-c1cn2c(=O)n(C3CC3)c(C(F)(F)F)cc2n1 (stereo not shown) [I.10],–,–,mortality in comparison with untreated controls (aphid mortality and fecundity assessed) [3]: over 75%
CCS(=O)(=O)c1cc(N=S(=O)(C2CC2)C2CC2)cnc1-c1cn2c(=O)n(C3CC3)c(C(F)(F)F)cc2n1 [I.12],over 75%,–,mortality in comparison with untreated controls [4]: over 75%
CCS(=O)(=O)c1cc(N=S2(=O)CCOCC2)cnc1-c1cn2c(=O)n(C)c(C(F)(F)F)cc2n1 [I.13],over 75%,–,–
CCS(=O)(=O)c1cc(N=S2(=O)CCOCC2)cnc1-c1cn2c(=O)n(C3CC3)c(C(F)(F)F)cc2n1 [I.14],over 75%,–,–
CCS(=O)(=O)c1cc(N=S2(=O)CCC2)cnc1-c1cn2c(=O)n(C3CC3)c(C(F)(F)F)cc2n1 [I.15],over 75%,over 75%,–
CCS(=O)(=O)c1cc(N=S(C)(C)=O)cnc1-c1cn2c(=O)n(Cc3ccccc3)c(C(F)(F)F)cc2n1 [I.16],–,–,mortality in comparison with untreated controls (aphid mortality and fecundity assessed) [3]: over 75%; mortality in comparison with untreated controls (egg and larval mortality) [5]: over 75%
CCS(=O)(=O)c1cc(N=S(=O)(C2CC2)C2CC2)ccc1-c1cn2c(=O)n(C3CC3)c(C(F)(F)F)cc2n1 [I.19],over 75%,over 75%,–
CCS(=O)(=O)c1cc(N=S(C)(C)=O)ccc1-c1cn2c(=O)n(C3CC3)c(C(F)(F)F)cc2n1 [I.20],over 75%,over 75%,–
CCS(=O)(=O)c1cc(N=S(C)(C)=O)ccc1-c1cn2c(=O)n(CC3CC3)c(C(F)(F)F)cc2n1 [I.21],over 75%,over 75%,–
CCS(=O)(=O)c1cc(N=S(=O)(CC)C2COC2)cnc1-c1cn2c(=O)n(CC3CC3)c(C(F)(F)F)cc2n1 (stereo not shown) [I.22],–,over 75%,–
